This passage reports binding results from PMC6250667.

Sequences of proteins named here, by UniProt entry; tags and fusion partners are left off.
UniProt P62715: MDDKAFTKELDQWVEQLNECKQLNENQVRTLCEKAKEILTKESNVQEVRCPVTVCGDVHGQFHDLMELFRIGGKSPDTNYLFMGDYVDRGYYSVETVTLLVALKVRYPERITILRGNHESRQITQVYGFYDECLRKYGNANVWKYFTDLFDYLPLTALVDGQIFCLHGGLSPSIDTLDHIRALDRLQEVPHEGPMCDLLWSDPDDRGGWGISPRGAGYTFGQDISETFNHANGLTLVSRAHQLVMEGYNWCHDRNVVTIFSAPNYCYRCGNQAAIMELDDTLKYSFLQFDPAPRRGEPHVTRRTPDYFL

This assay deals with T1, FLAG Foxi3 FL 1–399 (mouse) (UniProt D3Z120).
T1 sequence: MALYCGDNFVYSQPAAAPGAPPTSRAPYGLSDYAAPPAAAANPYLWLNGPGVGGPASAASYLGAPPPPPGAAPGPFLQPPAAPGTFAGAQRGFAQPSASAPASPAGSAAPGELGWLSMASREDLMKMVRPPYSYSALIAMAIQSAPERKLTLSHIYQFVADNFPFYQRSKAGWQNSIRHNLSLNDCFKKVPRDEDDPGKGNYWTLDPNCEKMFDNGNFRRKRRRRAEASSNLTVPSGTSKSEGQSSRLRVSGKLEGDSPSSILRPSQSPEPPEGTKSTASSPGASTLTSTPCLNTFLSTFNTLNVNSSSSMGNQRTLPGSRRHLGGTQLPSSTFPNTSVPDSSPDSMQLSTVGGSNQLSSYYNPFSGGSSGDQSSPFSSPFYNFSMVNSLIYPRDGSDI
The assay is described as follows: co-IP; Myc-tagged PP2A subunits co-transfected with FLAG Foxi3 in HEK-293T; anti-Flag M2 magnetic beads, 500 µg lysate, overnight at 4 °C, CoIP lysis buffer (Tris-HCl 25 mM pH 7.5, NaCl 150 mM, EDTA 1 mM, NP-40 1%, glycerol 5%, DTT 1 mM, phosphatase inhibitors); blot with MYC antibody.

No constants are given. Whether binding was seen depends on the method and setting. In cells and extracts the contact can be indirect. Some results given as binding are weak or reduced against the parent protein; the word gives no strength. Where a sequence is shown, tags or fusion partners need not be part of it.

In the case of “Myc-tagged PPP2CB (from UniProt P62715 1-309) (enzyme)”, the binding entry was “binds”.
